Data from the primary screen of doi:10.1371/journal.pone.0140310, rounded.

Compounds and concentrations:
fludarabine: Nc1nc(F)nc2c1ncn2[C@@H]1O[C@H](CO)[C@@H](O)[C@@H]1O at 1000 nM
GSK650394: O=C(O)c1ccc(-c2c[nH]c3ncc(-c4ccccc4)cc23)cc1C1CCCC1 at 800 nM
embelin: CCCCCCCCCCCC1=C(O)C(=O)C=C(O)C1=O at 6000 nM
bortezomib: CC(C)C[C@H](NC(=O)[C@H](Cc1ccccc1)NC(=O)c1cnccn1)B(O)O at 5 nM
PLX4720: CCCS(=O)(=O)Nc1ccc(F)c(C(=O)c2c[nH]c3ncc(Cl)cc23)c1F at 400 nM

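The test systems are human melanoma cell lines, treated with two drugs together for 72 h and then stained and imaged. The read-out is the fraction of cleaved-PARP-positive nuclei, in % of that fraction in the DMSO control; 200 means twice the control level of this apoptosis marker. Concentrations were fixed for each drug; these are the higher of two levels. No replicate spread is given; individual values may be noisy. Basal and induced levels differ widely between cell lines.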 An unselected part of the screen is shown. A dash means that no value is listed here.

| Cell line | GSK650394 and fludarabine | embelin and GSK650394 | PLX4720 and embelin | PLX4720 and fludarabine | bortezomib and fludarabine | embelin and fludarabine | bortezomib and PLX4720 | embelin and bortezomib |
|---|---|---|---|---|---|---|---|---|
| SK-MEL-5 | 2790 | 290 | 191 | 1910 | 594 | 694 | 1650 | 56.8 |
| MEL-HO | 196 | 62.1 | 90.8 | 285 | 210 | 231 | 233 | 85.8 |
| 501mel | - | 61.3 | 37.7 | - | - | 7810 | - | 34.9 |
| UACC-257 | 4460 | 26.0 | 39.4 | 6560 | 5620 | 2070 | 101 | 33.0 |
| A375 | - | 46.6 | 66.0 | 387 | 901 | 418 | 103 | 79.2 |
| C32 | 80.6 | 84.7 | 95.3 | 14.0 | 238 | 89.9 | 1350 | 83.1 |
| RVH-421 | 187 | 106 | 248 | 56.7 | 315 | 207 | 168 | 131 |
| WM3526 | 8880 | 98.8 | 149 | 2880 | 2480 | 2190 | 2120 | 67.1 |
| LOX IMVI | 118 | 99.5 | 147 | 31.8 | 168 | 126 | 299 | 184 |
| WM1716 | 178 | 97.2 | 71.9 | 137 | 11800 | 247 | 9970 | 199 |
| COLO 792 | 210 | 135 | 50.2 | 119 | 432 | 153 | 452 | 80.0 |
| WM115 | 66.6 | 61.6 | 29.6 | 93.5 | 1880 | 39.0 | 670 | 155 |
| MeWo | 128 | 73.4 | 93.2 | 107 | 1910 | 27.7 | 1470 | 89.6 |
| A2058 | 168 | 124 | 78.3 | 122 | 1840 | 170 | 1440 | 88.2 |
| WM1745 | 81.9 | 119 | - | 93.2 | 433 | - | 661 | - |
| SK-MEL-30 | 2900 | 118 | 72.5 | 1270 | 1210 | 1010 | 580 | 99.1 |
| LB2518-MEL | 286 | 70.0 | 30.2 | 165 | 2890 | 182 | 2900 | 116 |
| UACC-62 | 141 | 62.6 | 260 | 172 | 215 | 154 | 376 | 114 |
| COLO 800 | 293 | 155 | 184 | 90.6 | 158 | 94.1 | 154 | 84.2 |
| G-361 | 175 | 75.6 | 207 | 191 | 4460 | 195 | 8960 | 235 |
| IPC-298 | 144 | 101 | 31.3 | 223 | 1680 | 152 | 6980 | 202 |
| MZ2-MEL | 191 | 130 | 44.3 | 54.7 | 11000 | 88.4 | 20800 | 113 |
| SK-MEL-28 | 1970 | 215 | 119 | 5170 | 1200 | 3020 | 203 | 68.0 |
| WM451Lu | 289 | 128 | 324 | 109 | 724 | 86.4 | 289 | 99.5 |
| COLO 829 | 211 | 400 | 71.8 | 85.3 | 1960 | 58.8 | 5460 | 48.2 |
| SK-MEL-2 | 1010 | 332 | 122 | 2300 | 1330 | 1800 | 516 | 134 |
| WM3619 | 119 | 141 | 108 | 114 | 1850 | 128 | 2150 | 109 |
| IST-MEL1 | 64.4 | 2990 | 379 | 228 | 576 | 145 | 672 | 77.7 |
| RPMI-7951 | 286 | 83.9 | 184 | 276 | 540 | 130 | 452 | 111 |
| A101D | 113 | 89.7 | 179 | 95.6 | 286 | 273 | 478 | 125 |